The supplement of paper PMC6411743
± gives the standard deviation of the averaged measurements. Only a part is listed here, and it is no random draw.

Key:
Experiment in all cases: NP40-soluble protein abundance relative to vehicle (solubility fold change) (ratio); higher = more soluble protein in presence of AMP-PNP
PGLS = target: T1, PGLS (UniProt O95336)
T1 sequence (whole entry): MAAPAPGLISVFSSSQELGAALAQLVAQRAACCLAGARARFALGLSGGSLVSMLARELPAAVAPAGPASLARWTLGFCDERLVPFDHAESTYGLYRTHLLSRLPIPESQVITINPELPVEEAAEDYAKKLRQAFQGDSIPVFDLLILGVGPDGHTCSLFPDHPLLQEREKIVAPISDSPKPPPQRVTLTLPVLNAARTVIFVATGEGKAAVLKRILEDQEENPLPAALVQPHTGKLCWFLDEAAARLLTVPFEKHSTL
Method in brief: (§1)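 Across three independent experiments, values are fold changes against the detergent-processed vehicle for each replicate, based on vsn-normalised intensities. The samples were Jurkat crude lysate treated with eight concentrations (0.1 to 10 mM) for 10 min at room temperature and then 3 min at 37 °C. Lysate was solubilised with 0.8% NP40 and benzonase, ultracentrifuged, and the supernatant analysed by TMT-labelled LC-MS/MS.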

SEC24A = target: T2, SEC24A (UniProt O95486)
T2 sequence (whole entry): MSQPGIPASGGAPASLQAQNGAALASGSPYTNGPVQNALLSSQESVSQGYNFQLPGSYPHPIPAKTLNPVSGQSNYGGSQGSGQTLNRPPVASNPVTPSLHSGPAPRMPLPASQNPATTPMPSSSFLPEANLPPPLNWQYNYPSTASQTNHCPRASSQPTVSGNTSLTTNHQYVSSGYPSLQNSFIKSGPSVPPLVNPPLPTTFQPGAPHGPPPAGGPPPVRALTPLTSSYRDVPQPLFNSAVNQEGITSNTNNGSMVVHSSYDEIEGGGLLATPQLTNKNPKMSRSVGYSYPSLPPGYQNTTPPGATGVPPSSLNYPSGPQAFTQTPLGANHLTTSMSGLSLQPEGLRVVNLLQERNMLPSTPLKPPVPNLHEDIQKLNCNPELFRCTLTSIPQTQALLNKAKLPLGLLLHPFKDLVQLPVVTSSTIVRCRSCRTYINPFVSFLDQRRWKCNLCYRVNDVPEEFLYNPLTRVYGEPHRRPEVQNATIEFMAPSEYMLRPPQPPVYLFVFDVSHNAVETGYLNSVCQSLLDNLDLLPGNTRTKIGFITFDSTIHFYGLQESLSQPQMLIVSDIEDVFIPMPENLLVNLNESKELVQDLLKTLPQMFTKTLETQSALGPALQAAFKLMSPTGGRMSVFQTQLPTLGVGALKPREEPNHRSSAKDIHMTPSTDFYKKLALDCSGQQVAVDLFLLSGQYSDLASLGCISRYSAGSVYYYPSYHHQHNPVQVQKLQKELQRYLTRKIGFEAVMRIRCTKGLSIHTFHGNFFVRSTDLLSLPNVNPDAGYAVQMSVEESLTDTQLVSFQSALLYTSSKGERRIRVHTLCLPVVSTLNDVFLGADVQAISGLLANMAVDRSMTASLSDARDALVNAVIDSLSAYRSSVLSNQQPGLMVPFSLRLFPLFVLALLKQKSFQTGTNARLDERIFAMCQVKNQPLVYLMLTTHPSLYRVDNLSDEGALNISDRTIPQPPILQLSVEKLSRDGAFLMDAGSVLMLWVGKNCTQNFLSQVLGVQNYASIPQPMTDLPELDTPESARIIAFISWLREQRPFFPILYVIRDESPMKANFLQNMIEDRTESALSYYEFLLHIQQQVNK
Method in brief: as §1

SPAG7 = target: T3, SPAG7 (UniProt O75391)
T3 sequence (whole entry): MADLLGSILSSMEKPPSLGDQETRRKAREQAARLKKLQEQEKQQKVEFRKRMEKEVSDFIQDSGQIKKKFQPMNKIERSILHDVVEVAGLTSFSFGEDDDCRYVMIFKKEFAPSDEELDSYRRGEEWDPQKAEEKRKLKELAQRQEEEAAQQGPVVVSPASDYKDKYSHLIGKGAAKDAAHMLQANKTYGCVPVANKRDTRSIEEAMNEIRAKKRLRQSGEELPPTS
Method in brief: as §1

USP1 = target: T4, USP1 (UniProt O94782)
T4 sequence (whole entry): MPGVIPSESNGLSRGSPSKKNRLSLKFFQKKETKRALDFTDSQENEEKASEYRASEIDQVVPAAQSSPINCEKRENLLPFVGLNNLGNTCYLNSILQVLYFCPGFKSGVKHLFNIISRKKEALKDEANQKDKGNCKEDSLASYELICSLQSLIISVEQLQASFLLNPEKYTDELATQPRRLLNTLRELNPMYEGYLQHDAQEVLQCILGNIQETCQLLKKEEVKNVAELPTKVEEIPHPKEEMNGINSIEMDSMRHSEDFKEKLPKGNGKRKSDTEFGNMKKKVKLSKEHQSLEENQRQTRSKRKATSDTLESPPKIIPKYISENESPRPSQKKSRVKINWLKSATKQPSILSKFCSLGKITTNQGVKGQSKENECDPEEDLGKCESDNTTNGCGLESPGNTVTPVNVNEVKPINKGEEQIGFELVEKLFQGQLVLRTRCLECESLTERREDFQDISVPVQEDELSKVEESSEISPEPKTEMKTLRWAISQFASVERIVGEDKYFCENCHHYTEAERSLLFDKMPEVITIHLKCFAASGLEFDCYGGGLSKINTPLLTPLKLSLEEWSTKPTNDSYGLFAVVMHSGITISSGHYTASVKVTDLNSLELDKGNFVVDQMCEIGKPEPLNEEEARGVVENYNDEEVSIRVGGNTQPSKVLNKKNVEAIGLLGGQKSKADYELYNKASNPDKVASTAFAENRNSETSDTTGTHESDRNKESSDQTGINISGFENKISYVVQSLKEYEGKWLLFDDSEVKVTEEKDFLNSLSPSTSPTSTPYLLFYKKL
Method in brief: as §1

[1] = target: T5, UniProt O60671 and related entries
T5 sequence (whole entry): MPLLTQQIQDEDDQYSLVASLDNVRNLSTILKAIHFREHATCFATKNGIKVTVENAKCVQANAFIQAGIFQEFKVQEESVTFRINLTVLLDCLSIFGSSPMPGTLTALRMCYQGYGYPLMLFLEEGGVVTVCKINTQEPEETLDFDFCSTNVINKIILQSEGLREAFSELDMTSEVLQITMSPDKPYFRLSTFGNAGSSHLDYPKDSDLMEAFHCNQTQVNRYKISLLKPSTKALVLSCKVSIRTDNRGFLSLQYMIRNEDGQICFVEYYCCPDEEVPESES
Method in brief: as §1

## Nc1ncnc2c1ncn2[C@@H]1O[C@H](COP(=O)(O)OP(=O)(O)NP(=O)(O)O)[C@@H](O)[C@H]1O [adenylyl imidodiphosphate]
PGLS; concentration: 6mM
  NP40-soluble protein abundance: 1 ± 0.11
PGLS; concentration: 8mM
  NP40-soluble protein abundance: 1.03 ± 0.06
PGLS; concentration: 10mM
  NP40-soluble protein abundance: 0.967 ± 0.1
SEC24A; concentration: 1mM
  NP40-soluble protein abundance: 0.974 ± 0.019
SEC24A; concentration: 2mM
  NP40-soluble protein abundance: 0.933 ± 0.06
SEC24A; concentration: 4mM
  NP40-soluble protein abundance: 0.9772 ± 0.008
SEC24A; concentration: 6mM
  NP40-soluble protein abundance: 0.9544 ± 0.0079
SEC24A; concentration: 8mM
  NP40-soluble protein abundance: 0.956 ± 0.024
SEC24A; concentration: 10mM
  NP40-soluble protein abundance: 0.9188 ± 0.0071
SPAG7; concentration: 1mM
  NP40-soluble protein abundance: 0.9725 ± 0.0086
SPAG7; concentration: 2mM
  NP40-soluble protein abundance: 1.03 ± 0.058
SPAG7; concentration: 4mM
  NP40-soluble protein abundance: 0.966 ± 0.031
SPAG7; concentration: 6mM
  NP40-soluble protein abundance: 0.952 ± 0.016
SPAG7; concentration: 8mM
  NP40-soluble protein abundance: 0.9328 ± 0.0069
SPAG7; concentration: 10mM
  NP40-soluble protein abundance: 0.91 ± 0.061
USP1; concentration: 1mM
  NP40-soluble protein abundance: 0.999 ± 0.059
USP1; concentration: 2mM
  NP40-soluble protein abundance: 1.01 ± 0.056
USP1; concentration: 4mM
  NP40-soluble protein abundance: 0.999 ± 0.065
USP1; concentration: 6mM
  NP40-soluble protein abundance: 0.978 ± 0.033
USP1; concentration: 8mM
  NP40-soluble protein abundance: 0.967 ± 0.017
USP1; concentration: 10mM
  NP40-soluble protein abundance: 0.973 ± 0.042
[1]; concentration: 1mM
  NP40-soluble protein abundance: 0.97 ± 0.048
[1]; concentration: 2mM
  NP40-soluble protein abundance: 0.949 ± 0.024
[1]; concentration: 4mM
  NP40-soluble protein abundance: 0.987 ± 0.061
[1]; concentration: 6mM
  NP40-soluble protein abundance: 1.03 ± 0.052
[1]; concentration: 8mM
  NP40-soluble protein abundance: 1.02 ± 0.036
[1]; concentration: 10mM
  NP40-soluble protein abundance: 0.98 ± 0.037
